PubChem BioAssay AID686938 – Drosophila RNAi Screening Center, 2013
The screen tested about 23,000 reagents; this is an unselected part of those that have a named target and a result. In the full data, 75 (0.33%) are marked active. 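Raw plate signals without normalisation; calls rest on plate z-scores that were not deposited; ratio present for only 364 wells.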 Entries without a mark were called inactive. The numbers tell different reagents against one gene apart. Reagent sequences are not shown. The record does not give: the dose of the treatment.

Screen: 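Knock-downs reducing store-operated calcium influx in Drosophila cells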 (primary screen)
Cells: Drosophila S2R+ cells
Reagents: long dsRNA against Drosophila genes, about 0.25 µg dsRNA per well, roughly 10,000 cells
Duration: 5 days of knock-down before the calcium assay
Treatment: thapsigargin (SERCA pump blocker) to empty calcium stores; entry signal taken 4 min after adding it
Measured: 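Per-well fluo-4 fluorescence in two replicates, unnormalised, measured in resting cells and 4 min after store depletion by the SERCA blocker thapsigargin; ratio of the two present in few wells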
Scale: calcium entry signal: higher = stronger calcium signal after store depletion; resting calcium signal: higher = higher resting calcium signal
Units: calcium entry signal in fluorescence units; resting calcium signal in fluorescence units
Hit rule: 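Called when the plate z-score of the entry-to-rest ratio, mean of duplicates, falls below −3; wells with low overall dye signal (Fmax z below −2) or more than five off-targets excluded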
Calls: active = strongly reduced calcium entry; inactive = no strong reduction

With CG18128, what does the deposit list?
calcium entry signal, replicate 1: 4.36e7; calcium entry signal, replicate 2: 4.18e7; resting calcium signal, replicate 1: 2.07e7; resting calcium signal, replicate 2: 1.80e7

For Pgant1, what was measured?
calcium entry signal, replicate 1: 4.22e7; calcium entry signal, replicate 2: 3.66e7; resting calcium signal, replicate 1: 2.22e7; resting calcium signal, replicate 2: 1.63e7

With Atg14, what was measured?
calcium entry signal, replicate 1: 2.86e7; calcium entry signal, replicate 2: 3.47e7; resting calcium signal, replicate 1: 1.34e7; resting calcium signal, replicate 2: 1.77e7

With CG12446, how do the results read?
calcium entry signal, replicate 1: 4.57e7; calcium entry signal, replicate 2: 5.25e7; resting calcium signal, replicate 1: 2.32e7; resting calcium signal, replicate 2: 2.12e7

Which result is listed for Obp57a?
calcium entry signal, replicate 1: 3.31e7; calcium entry signal, replicate 2: 5.23e7; resting calcium signal, replicate 1: 1.64e7; resting calcium signal, replicate 2: 2.49e7

With Cyp4g15, what does the deposit list?
calcium entry signal, replicate 1: 3.60e7; calcium entry signal, replicate 2: 5.88e7; resting calcium signal, replicate 1: 1.74e7; resting calcium signal, replicate 2: 2.79e7

What is on record for Bro?
calcium entry signal, replicate 1: 3.73e7; calcium entry signal, replicate 2: 4.40e7; resting calcium signal, replicate 1: 1.95e7; resting calcium signal, replicate 2: 1.93e7

Which result is listed for fmt?
calcium entry signal, replicate 1: 4.19e7; calcium entry signal, replicate 2: 3.10e7; resting calcium signal, replicate 1: 2.66e7; resting calcium signal, replicate 2: 1.30e7

For ea, what does the deposit list?
calcium entry signal, replicate 1: 3.78e7; calcium entry signal, replicate 2: 5.56e7; resting calcium signal, replicate 1: 1.79e7; resting calcium signal, replicate 2: 6.23e7

With Or30a, how do the results read?
calcium entry signal, replicate 1: 2.74e7; calcium entry signal, replicate 2: 4.28e7; resting calcium signal, replicate 1: 1.31e7; resting calcium signal, replicate 2: 1.74e7

Which result is listed for side-II #1?
calcium entry signal, replicate 1: 3.47e7; calcium entry signal, replicate 2: 4.09e7; resting calcium signal, replicate 1: 1.85e7; resting calcium signal, replicate 2: 2.15e7

Which result is listed for side-II #2?
calcium entry signal, replicate 1: 3.58e7; calcium entry signal, replicate 2: 4.54e7; resting calcium signal, replicate 1: 2.02e7; resting calcium signal, replicate 2: 2.14e7

With side-II #3, what was measured?
calcium entry signal, replicate 1: 3.77e7; calcium entry signal, replicate 2: 2.70e7; resting calcium signal, replicate 1: 1.63e7; resting calcium signal, replicate 2: 1.25e7

Which result is listed for side-II #4?
calcium entry signal, replicate 1: 3.60e7; calcium entry signal, replicate 2: 6.01e7; resting calcium signal, replicate 1: 1.57e7; resting calcium signal, replicate 2: 2.71e7

With side-II #5, what does the deposit list?
calcium entry signal, replicate 1: 3.16e7; calcium entry signal, replicate 2: 1.75e7; resting calcium signal, replicate 1: 1.38e7; resting calcium signal, replicate 2: 1.01e7

For side-II #6, how do the results read?
calcium entry signal, replicate 1: 5.67e7; calcium entry signal, replicate 2: 3.69e7; resting calcium signal, replicate 1: 2.75e7; resting calcium signal, replicate 2: 1.73e7
